# In patent US8895499B2 (Polyphor AG, priority 2010, dated 2014):
# Some peptides are written in HELM: one residue between dots, names in brackets for other building blocks, links after the first $.
# Experiment: general procedure: Fmoc solid-phase peptide synthesis; Fmoc-Pro-O-chlorotrityl resin
# Details: whole synthesis
row,Substance,final purity (method not given)
1,"PEPTIDE1{W.R.I.R.I.[dR].N.Q.R.W.Q.A.[dP].P}$PEPTIDE1,PEPTIDE1,1:R1-14:R2$$$V2.0",94%
2,"PEPTIDE1{W.R.I.[Orn].I.[dR].N.Q.R.L.Q.A.[dP].P}$PEPTIDE1,PEPTIDE1,1:R1-14:R2$$$V2.0",97%
3,"PEPTIDE1{W.R.I.[Dab].I.[dR].N.Q.R.L.Q.A.[dP].P}$PEPTIDE1,PEPTIDE1,1:R1-14:R2$$$V2.0",97%
4,"PEPTIDE1{W.R.I.R.I.[D-Dab].N.W.[Dab].N.R.[Dab].[dP].P}$PEPTIDE1,PEPTIDE1,1:R1-14:R2$$$V2.0",95%
5,"PEPTIDE1{W.R.I.R.I.[dR].N.Q.R.[Cha].Q.A.[dP].P}$PEPTIDE1,PEPTIDE1,1:R1-14:R2$$$V2.0",92%
6,"PEPTIDE1{W.R.I.R.I.[Dab].N.Q.R.L.Q.A.[dP].P}$PEPTIDE1,PEPTIDE1,1:R1-14:R2$$$V2.0",92%
7,"PEPTIDE1{W.R.I.R.I.[dR].Q.Q.R.L.Q.A.[dP].P}$PEPTIDE1,PEPTIDE1,1:R1-14:R2$$$V2.0",97%
8,"PEPTIDE1{W.R.I.R.I.[dR].L.Q.R.L.Q.A.[dP].P}$PEPTIDE1,PEPTIDE1,1:R1-14:R2$$$V2.0",97%
9,"PEPTIDE1{W.R.I.R.I.[Orn].N.Q.R.L.Q.A.[dP].P}$PEPTIDE1,PEPTIDE1,1:R1-14:R2$$$V2.0",95%
10,"PEPTIDE1{W.[Dab].I.R.I.[dR].N.Q.R.L.Q.A.[dP].P}$PEPTIDE1,PEPTIDE1,1:R1-14:R2$$$V2.0",97%
11,"PEPTIDE1{W.R.I.R.I.[dR].N.Q.R.Y.Q.A.[dP].P}$PEPTIDE1,PEPTIDE1,1:R1-14:R2$$$V2.0",94%
12,"PEPTIDE1{W.R.I.R.I.[dR].Y.Q.R.L.Q.A.[dP].P}$PEPTIDE1,PEPTIDE1,1:R1-14:R2$$$V2.0",97%
13,"PEPTIDE1{W.[Orn].I.R.I.[dR].N.Q.R.L.Q.A.[dP].P}$PEPTIDE1,PEPTIDE1,1:R1-14:R2$$$V2.0",97%
14,"PEPTIDE1{W.R.I.R.I.[dR].N.K.R.N.R.A.[dP].P}$PEPTIDE1,PEPTIDE1,1:R1-14:R2$$$V2.0",95%
15,"PEPTIDE1{W.R.I.R.I.[dR].N.H.R.N.R.R.[dP].P}$PEPTIDE1,PEPTIDE1,1:R1-14:R2$$$V2.0",94%
16,"PEPTIDE1{W.R.I.R.I.[dR].N.K.R.L.R.Q.[dP].P}$PEPTIDE1,PEPTIDE1,1:R1-14:R2$$$V2.0",90%
17,"PEPTIDE1{W.R.I.R.I.[dR].N.K.[Dab].L.R.R.[dP].P}$PEPTIDE1,PEPTIDE1,1:R1-14:R2$$$V2.0",94%
18,"PEPTIDE1{W.R.I.R.I.[dR].T.Q.R.L.Q.A.[dP].P}$PEPTIDE1,PEPTIDE1,1:R1-14:R2$$$V2.0",94%
